Data source: PubChem BioAssay AID504793 (Drosophila RNAi Screening Center, 2011)

Aim: 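Whole-genome screen for parts of the DNA damage checkpoint at G2/M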 (primary screen)
Cells: Drosophila S2R+ cells
Reagents: long dsRNA against Drosophila genes, about 0.25 µg dsRNA per well
Time to read-out: 4 days of dsRNA, then 4 hours of drug before read-out
Challenge: doxorubicin 0.5 µM for 4 hours to cause double-strand breaks, in cells also given a low, harmless dose of dsRNA against nbs to sensitise the assay
Read-out: 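Mitotic index as the number of phospho-histone H3-positive cells in each well following doxorubicin, given as raw counts without normalisation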
Direction: mitotic cells: higher = more cells in mitosis, weaker G2 arrest
Call rule: 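Genes are called active only when high mitotic counts were reproduced with independent dsRNAs and mitosis was checked for delay without damage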
Calls: active = confirmed in follow-up tests; inactive = not confirmed
The deposit covers about 23,000 reagents; shown is a random part of those that have a named target and a result. Of all reagents, 62 (0.27%) were called active. 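Calls come from follow-up tests whose scores are not deposited, so confirmed genes may have low counts here; counts are not normalised per plate.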 Raw values vary from plate to plate and are shown uncorrected. Reagents against one gene are numbered here.

CG17349: mitotic cells, replicate 1 = 2; Outcome = inactive
Spg7 (Paraplegin): mitotic cells, replicate 1 = 12; Outcome = inactive
Zip99C (Zinc/iron regulated transporter-related protein 99C): mitotic cells, replicate 1 = 9; Outcome = inactive
Gfat2 (Glutamine:fructose-6-phosphate aminotransferase 2) #1: mitotic cells, replicate 1 = 7; Outcome = inactive
Gfat2 (Glutamine:fructose-6-phosphate aminotransferase 2) #2: mitotic cells, replicate 1 = 9; Outcome = inactive
Rad23: mitotic cells, replicate 1 = 9; Outcome = inactive

Next part (2 carried over from the part before).
Gfat2 (Glutamine:fructose-6-phosphate aminotransferase 2) #2: mitotic cells, replicate 1 = 9; Outcome = inactive
Rad23: mitotic cells, replicate 1 = 9; Outcome = inactive
CG14694: mitotic cells, replicate 1 = 8; Outcome = inactive
CG13437: mitotic cells, replicate 1 = 8; Outcome = inactive
CG34247: mitotic cells, replicate 1 = 5; Outcome = inactive
CG10505: mitotic cells, replicate 1 = 8; Outcome = inactive
CG30411 #1: mitotic cells, replicate 1 = 5; Outcome = inactive
CG30411 #2: mitotic cells, replicate 1 = 9; Outcome = inactive
CG1924 #1: mitotic cells, replicate 1 = 8; Outcome = inactive
CG1924 #2: mitotic cells, replicate 1 = 3; Outcome = inactive
